# Experimental data published in PubChem BioAssay AID602376 (Johns Hopkins Ion Channel Center, 2012).
# Amino acid sequences for entries named in this document (tags omitted). A change or cut given only in a name is not applied to a line headed by its entry.
# UniProt Q9GZV3: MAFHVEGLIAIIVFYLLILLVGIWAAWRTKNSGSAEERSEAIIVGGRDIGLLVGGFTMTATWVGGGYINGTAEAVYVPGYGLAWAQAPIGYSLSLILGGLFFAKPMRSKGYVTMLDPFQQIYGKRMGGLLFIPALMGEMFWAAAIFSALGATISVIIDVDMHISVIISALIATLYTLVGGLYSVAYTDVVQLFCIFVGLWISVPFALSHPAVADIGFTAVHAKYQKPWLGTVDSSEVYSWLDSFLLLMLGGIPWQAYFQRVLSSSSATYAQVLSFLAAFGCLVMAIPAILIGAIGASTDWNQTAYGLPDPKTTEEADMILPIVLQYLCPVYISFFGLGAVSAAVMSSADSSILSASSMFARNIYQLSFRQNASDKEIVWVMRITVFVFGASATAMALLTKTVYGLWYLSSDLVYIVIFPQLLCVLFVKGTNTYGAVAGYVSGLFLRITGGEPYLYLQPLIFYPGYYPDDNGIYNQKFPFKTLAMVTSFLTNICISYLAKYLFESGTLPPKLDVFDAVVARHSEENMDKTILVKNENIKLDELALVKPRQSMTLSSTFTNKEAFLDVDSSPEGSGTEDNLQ
# The inconclusive results got no clear call from the source; some entries with a clear call stand among them for comparison. The source made the active and inactive calls.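 The calls were made as follows: active = raises choline transporter activity at one or more tested doses and gives a fitted dose-response curve; inconclusive = no clear call, values can overlap the other calls; inactive = no choline transporter activation at any dose, or no curve.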
# Target: High affinity choline transporter 1 (Homo sapiens) (UniProt Q9GZV3)
# Experiment: CHT activators, dose response, cell-based, 10-point CRC, membrane potential dye (AID 602376)
# Details: HEK293-CHT, choline-induced membrane potential dye, cells express CHT LV-AA mutant; at 67 µM (top of the series)
row,SMILES,percent activation
1,O=C(Nc1ccccc1)OC1CCC2CC1CCC2OC(=O)Nc1ccccc1 (configuration not stated),inconclusive: 59.7%
2,CC1Cc2cc(S(=O)(=O)N3CCN(c4ccccc4F)CC3)ccc2N1C(=O)C1CC1 (configuration not stated),inactive: 72.5%
3,CCc1ccc(OCC(=O)N/N=C/c2cc([N+](=O)[O-])ccc2N2CCOCC2)cc1,inactive: 61.9%
4,COc1ccc(NCc2nc3ccccc3n2CCOc2ccccc2)cc1,inconclusive: 48.9%
5,Cc1noc(C)c1COC(=O)c1ccccc1Oc1ccccc1,inconclusive: 73.4%
6,CC(C)CN1CCC(=O)N([C@H](CSc2ccccc2)Cc2ccccc2)CC1,inconclusive: 96.8%
7,CCCn1c(SCc2ccc(C(=O)OC)o2)nc2ccccc2c1=O,inconclusive: 77.8%
8,COc1ccc(NC(=O)C(c2ccccc2)N2CCN(c3ccccn3)CC2)cc1Cl (configuration not stated),inactive: 49.1%
9,CCC(O)(CC)C(=O)N/N=C/c1cc(Br)cc(Br)c1O,inconclusive: 63.3%
10,CCOC(=O)c1c(CSc2ccsc2)n(C)c2cc(Br)c(O)c(CN(C)C)c12,inactive: 93.4%
11,COc1ccc(-n2c(-c3ccc(F)cc3)cnc2SCC(=O)NCc2ccco2)cc1,inconclusive: 77.3%
12,Cc1ccc(C)c(CSc2nnc(-c3cccs3)n2Cc2ccco2)c1,inconclusive: 106%
